# ± gives the standard deviation. The list shows a part of the results, in another mix than the full data. Many entries were measured with a wide error.
# Test system: MIWI (PIWIL1) piRISC loaded with L1MC piRNA (30 nt)
# Experiment: pre-steady-state target cleavage rate (min^-1); MIWI and MILI are mouse PIWI proteins and EfPiwi is from a freshwater sponge; tags in brackets are library labels; higher = faster piRNA-guided slicing of the target
# Details: guide: L1MC piRNA 5'p-UAACUAAAUACUAUGCAAGCUGUAGGUCCU; auxiliary factor: none (no GTSF1)
# How it was run: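 With or without 500 nM GTSF1 partner protein, 1 nM active affinity-purified piRISC carrying one synthetic guide was mixed with 0.1 nM transcribed, DNA-blocked target RNA library in HEPES–potassium acetate buffer at 33 °C for 0–8 or 0–960 min. Uncleaved targets were sequenced and normalised to depth and to weakly complementary targets, three trials were pooled, and k3 was capped at 0.0001 min^-1. The pre-steady-state cleavage rate came from a burst-and-steady-state fit.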
row,Sequence,pre-steady-state target cleavage rate
1,AGGACCUACAGCUUCGAUAGUAUUUAGAAA,0.000389 ± 0.0068
2,AGGACCUACAGGUUCCAUAGUAUUUAGUUA,0.0023 ± 0.0027
3,AGGACCUACAGCUAGCAUAGUAUUUUCAAA,0.0016 ± 0.0044
4,UGGACCUACUCGUUGCAUAGUAUUUACAAA,0.0013 ± 0.0041
5,UCCACCUACAGCUAGCAUAGUAUUUAGAAA,0.00151 ± 0.0043
6,UGGACCUACAGCUUGCAUCAGUAUUUAGUUA,0.000851 ± 0.0056
7,UCCUGGAUCAGCUUGCAUAGUAUAAUCAAA [g8:g22:cont:t1A],0.000629 ± 0.0062
8,AGGACCUACAGCUUGCAUCAGUAUUUAGUUA,0.000872 ± 0.01
9,AGGUGGUACAGCUUGCAUAGUAUUUUCAAA,0.00174 ± 0.0033
10,UGGACCUACAGCUUGCAUAGAUAUUUCAAA,0.000747 ± 0.0084
11,UCCACCUACAGCUUCCAUAGUAUUUUCAAA,0.000647 ± 0.011
12,UCCUGCUACAGCUUGCAUAGUAUAAUCAAA [g8:g25:cont:t1A],0.000937 ± 0.0091
13,UCCUGGAUGUCGAACGUUAGAUAUUAGUUA,0.000167 ± 0.032
14,UGGACCUACAGCUACGAUAGUAUUUAGUUA,0.000742 ± 0.0061
15,UCCACCUACAGCUUGCAUAGAUAUUUAGUUA,0.00139 ± 0.0041
16,UCCACCUACAGCUUGCAUAGUAUUAUCAAA,0.0012 ± 0.0072
17,UCGACCUACUCGUUGCAUAGUAUUUACAAA,0.00163 ± 0.0027
18,UCGACCUACAGCUUCCAUAGUAUUAAGUUA,0.00124 ± 0.0057
19,UCGACCUACAGCUUCCAUAGAAUUUAGUUA,0.00142 ± 0.0029

# In a second layout: results already given.
row	Sequence	pre-steady-state target cleavage rate
4	UGGACCUACUCGUUGCAUAGUAUUUACAAA	0.0013 ± 0.0041
14	UGGACCUACAGCUACGAUAGUAUUUAGUUA	0.000742 ± 0.0061

# (further entries)

row,Sequence,pre-steady-state target cleavage rate
1,AGGACCUACAGCUUCCAUAGUAUUUUCAAA,0.000825 ± 0.011
2,UGGACCUACAGCUUGCAUUCAUAAAUCAAA [g13:g29:cont:t1A],0.000208 ± 0.016
3,UCGACCUACAGGAUGCAUAGUAUUUAGAAA,0.00161 ± 0.0031
4,UCCACCUACAGCUUGCAUAGUAUAAUGUAA,0.00197 ± 0.0039
5,AGGACCUACAGCUUCCAUAGUAUUUAGAAA,0.0013 ± 0.0065
6,UGGACCUACAGCUUGCAUAGUUAUUACAAA,0.000868 ± 0.0074
7,UCCUGGAUGUCGAACGAUUGUUUUUAGUUA,0.000203 ± 0.026
8,UGGACCUACAGCAAGCAUAGUAUUUACAAA,0.000689 ± 0.0069
9,UCCACCUACAGCUUGCAUAGUAUUUACAAA,0.00306 ± 0.0042
10,AGGACCUACAGCUUGCAUAGAAUUUUCAAA,0.00162 ± 0.0058
11,UCCACCUACAGCUUGCACUAGUAUUUAGUUA,0.000946 ± 0.0077
12,UCGACCUACAGCUUGCAUAGAUAUUUCAAA,0.000629 ± 0.0096
13,UCGACCUACAGCUUGCAUAGAUAUUAGAAA,0.000697 ± 0.01
14,UCGACCUACAGCUUGCAUAGUAAAUAGAAA,0.00158 ± 0.0054
15,UCCACCUACAGCUUGCUAUGUAUUUAGUAA,0.00143 ± 0.0045
16,UGGACCUACAGCUUGCAUUCUAUUUACAAA,0.000715 ± 0.0066
17,UCCUGGAUGUCGAACGAUAGUAUUUAGUAUA,0.00036 ± 0.013
18,UGGACCUACAGCUUGCAUUCAAUUUAGUUA,0.00107 ± 0.004
19,UGCUGCUACAGCUUGCAUAGUAUUUUCAAA,0.00133 ± 0.004

# Reference: the supplement of paper PMC10338343
